Measurements from PMC1526750.
No constants are given. Whether binding was seen depends on the method and setting. In cells and extracts the contact can be indirect. Some binding calls cover weakened binding; strength is not graded here. For some of these results: Tags and fused reporters may be left off the sequences shown.

Columns and labels:
[1] = molecular target: T1, Gal4DBD-BCL11A-S, in vitro translated, unlabeled (human) (UniProt Q9H165); experiment: co-IP; in vitro translated unlabeled Gal4DBD-BCL11A isoforms and 35S-labeled HA-BCL11A isoforms; anti-Gal4-DBD antibody, IP buffer (50 mM Tris-Cl pH 7.5, 150 mM NaCl, 5 mM MgCl2, 1 mM EDTA, 0.25% NP-40, 1 mM DTT), 1 hr at 4°C, protein A agarose
T1 sequence: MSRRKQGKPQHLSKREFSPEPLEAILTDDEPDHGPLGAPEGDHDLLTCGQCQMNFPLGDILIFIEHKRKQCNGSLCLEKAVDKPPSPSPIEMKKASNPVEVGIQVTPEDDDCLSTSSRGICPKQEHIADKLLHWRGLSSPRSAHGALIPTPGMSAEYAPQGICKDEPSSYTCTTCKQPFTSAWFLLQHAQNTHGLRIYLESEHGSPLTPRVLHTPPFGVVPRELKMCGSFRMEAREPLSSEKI

[2] = molecular target: Gal4DBD-BCL11A-XL, in vitro translated, unlabeled (human) (UniProt Q9H165); experiment: as above
[3] = molecular target: Gal4DBD-BCL11A-L, in vitro translated, unlabeled (human) (UniProt Q9H165); experiment: as above
[4] = molecular target: BCL11A-XL in the co-immunoprecipitation with nonO (data not shown) (human) (UniProt Q9H165); experiment: co-IP; data not shown; no details given

B1: HA-BCL11A-S, in vitro translated, 35S-labeled (protein, UniProt Q9H165-3 1-243)
chain: MSRRKQGKPQHLSKREFSPEPLEAILTDDEPDHGPLGAPEGDHDLLTCGQCQMNFPLGDILIFIEHKRKQCNGSLCLEKAVDKPPSPSPIEMKKASNPVEVGIQVTPEDDDCLSTSSRGICPKQEHIADKLLHWRGLSSPRSAHGALIPTPGMSAEYAPQGICKDEPSSYTCTTCKQPFTSAWFLLQHAQNTHGLRIYLESEHGSPLTPRVLHTPPFGVVPRELKMCGSFRMEAREPLSSEKI
modifications: 35S-labeled
In the case of B1, the binding [1] is reported as “binds”, the binding [2] is reported as “binds” and the binding [3] is reported as “binds”.

B2: nonO/p54nrb (protein, UniProt Q15233 1-471)
chain: MQSNKTFNLEKQNHTPRKHHQHHHQQQHHQQQQQQPPPPPIPANGQQASSQNEGLTIDLKNFRKPGEKTFTQRSRLFVGNLPPDITEEEMRKLFEKYGKAGEVFIHKDKGFGFIRLETRTLAEIAKVELDNMPLRGKQLRVRFACHSASLTVRNLPQYVSNELLEEAFSVFGQVERAVVIVDDRGRPSGKGIVEFSGKPAARKALDRCSEGSFLLTTFPRPVTVEPMDQLDDEEGLPEKLVIKNQQFHKEREQPPRFAQPGSFEYEYAMRWKALIEMEKQQQDQVDRNIKEAREKLEMEMEAARHEHQVMLMRQDLMRRQEELRRMEELHNQEVQKRKQLELRQEEERRRREEEMRRQQEEMMRRQQEGFKGTFPDAREQEIRMGQMAMGGAMGINNRGAMPPAPVPAGTPAPPGPATMMPDGTLGLTPPTTERFGQAATMEGIGAIGGTPPAFNRAAPGAEFAPNKRRRY
With B2 the binding [4] was “binds”.
